Measurements taken from paper PMC13191473.
Results are given in words; binding and its absence hold for the method and conditions named. In cells and extracts the contact can be indirect. Some results given as binding are weak or reduced against the parent protein; the word gives no strength.

Target: T1, AXL (mouse (endogenous in lung tissue)) (UniProt Q00993)
T1 sequence: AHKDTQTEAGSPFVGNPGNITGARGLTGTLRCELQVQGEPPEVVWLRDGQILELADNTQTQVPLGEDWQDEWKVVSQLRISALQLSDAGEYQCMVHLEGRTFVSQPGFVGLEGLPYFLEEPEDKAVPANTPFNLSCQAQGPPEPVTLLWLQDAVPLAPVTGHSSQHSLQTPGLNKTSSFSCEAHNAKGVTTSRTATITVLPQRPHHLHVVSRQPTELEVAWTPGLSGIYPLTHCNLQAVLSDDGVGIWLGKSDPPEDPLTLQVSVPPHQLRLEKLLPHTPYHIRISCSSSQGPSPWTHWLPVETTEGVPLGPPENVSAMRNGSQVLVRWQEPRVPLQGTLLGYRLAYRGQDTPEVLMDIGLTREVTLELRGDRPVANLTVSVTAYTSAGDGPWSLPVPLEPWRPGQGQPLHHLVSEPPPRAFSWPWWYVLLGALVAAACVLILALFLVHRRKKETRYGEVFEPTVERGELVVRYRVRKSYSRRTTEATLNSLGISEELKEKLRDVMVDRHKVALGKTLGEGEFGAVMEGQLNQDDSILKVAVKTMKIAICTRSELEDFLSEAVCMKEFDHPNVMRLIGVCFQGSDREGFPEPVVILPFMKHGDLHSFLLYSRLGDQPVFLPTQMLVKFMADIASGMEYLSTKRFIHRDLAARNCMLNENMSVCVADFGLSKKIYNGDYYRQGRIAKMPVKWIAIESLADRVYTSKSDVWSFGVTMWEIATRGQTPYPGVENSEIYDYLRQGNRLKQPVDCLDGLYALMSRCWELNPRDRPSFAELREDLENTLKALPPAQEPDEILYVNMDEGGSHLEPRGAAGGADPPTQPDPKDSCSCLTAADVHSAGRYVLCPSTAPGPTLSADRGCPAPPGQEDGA
Assay: co-IP; Lung tissue lysate (RIPA, protease inhibitors) from vehicle- or rPROS1-treated mice (2 μg/mouse/day for 4 days); precleared with Dynabeads protein G; anti-AXL antibody or IgG with Dynabeads protein G overnight at 4°C; immunoblots for Gab1, p85 and AXL

B1: Gab1 (protein, UniProt Q9QYY0 1-695)
chain: MSGGEVVCSGWLRKSPPEKKLKRYAWKRRWFVLRSGRLTGDPDVLEYYKNDHAKKPIRIIDLNLCQQVDAGLTFNKKEFENSYIFDINTIDRIFYLVADSEEDMNKWVRCICDICGFNPTEEDPVKPLTGSSQAPVDSPFAISTAPASSQMEASSVALPPPYQVISLPPHPDTLGLQDDPQDYLLLINCQSKKPEPNRTLFDSAKPTFSETDCNDNVPSHQTPASSQSKHGMNGFFQQQMMYDCPPSRLTSVSGESSLYNLPRSYSHDVLPKESPSSTEADGELYTFNTPSGTAGVETQMRHVSISYDIPPTPGNTYQIPRTFPESTLGQSSKLDTIPDIPPPRPPKPHPTHDRSPVETCGVPRTASDTDSSYCIPPPAGMTPSRSNTISTVDLNKLRKDASSQDCYDIPRTFPSDRSSSLEGFHSQYKIKSVLTAGGVSGEELDENYVPMNPNSPPRQHSGSFTEPIQEPNYVPMTPGTFDFSSFGMQVPPPAHMGFRSSPKTPPRRPVPVADCEPPPVDRNLKPDRKVKPAPLDIKPLSEWEELQAPVRSPITRSFARDSSRFPMSPRPDSVHSTTSSSDSHDSEENYVPMNPNLSGEDPNLFASNSLDGGSSPMNKPKGDKQVEYLDLDLDSGKSTPPRKQKSSGSGSSMADERVDYVVVDQQKTLALKSTREAWTDGRQSTESETPTKNVK
With B1 the binding was “binds”.
